# The supplement of paper PMC4807443
# Structures can show the parent of a compound that is named as a salt. The list shows a part of the results. The numbers are fractions of the control, whatever unit the source prints. Most entries show no effect beyond the scatter of the controls.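 MIN6, a mouse insulinoma beta-cell line, stably carries a lentiviral reporter where Pdx1 and Ins1 promoters each drive a nuclear fluorescent protein; Hoechst staining and automated imaging counted cells. Drugs were candidate hits if Ins1 promoter readout exceeded two median absolute deviations from DMSO controls while Pdx1 activity stayed near normal.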
# Test system: MIN6
# Test: % Pdx1+ Ins1-low (RFP-only, immature) cells relative to DMSO control (fold of DMSO control); higher = more immature Pdx1+/Ins1-low cells
# Details: 8.5 µM; 48 h; glucose 5 mM
row,SMILES,% Pdx1+ Ins1-low
1,"CC(O)(P(=O)(O)O)P(=O)(O)O [Etidronic acid, disodium salt]",1.01
2,CCC1NC(=O)c2cc(S(N)(=O)=O)c(Cl)cc2N1 (stereo not given) [Quinethazone],1.03
3,COc1ccccc1N1CCN(CCCCNC(=O)c2ccc3ccccc3c2)CC1,0.728
4,COC(=O)[C@H]1[C@H]2C[C@@H]3c4[nH]c5cc(OC)ccc5c4CCN3C[C@H]2C[C@@H](OC(=O)/C=C/c2cc(OC)c(OC)c(OC)c2)[C@@H]1OC [Rescinnamin],1.65
5,COC(=O)C1=C(C)NC(C)=C(C(=O)OCCN(C)Cc2ccccc2)C1c1cccc([N+](=O)[O-])c1 (stereo not given) [Nicardipine hydrochloride],0.536
6,Cc1ccccc1C(OCCN(C)C)c1ccccc1 (stereo not given) [Orphenadrine hydrochloride],1.12
7,O=C1C(O)=C([C@H]2CC[C@H](c3ccc(Cl)cc3)CC2)C(=O)c2ccccc21 [Atovaquone],0.913
8,"CC(C)NCC(O)c1ccc(O)c(O)c1 (single isomer, unassigned; (-)) [(-)-Isoproterenol hydrochloride]",1.31
9,NC(=O)NC1NC(=O)NC1=O (stereo not given) [Allantoin],1.15
10,CN(C)CCOC(c1ccc(Cl)cc1)c1ccccn1 (stereo not given) [Carbinoxamine maleate salt],0.482
11,CC/C(=C(\c1ccccc1)c1ccc(OCCN(C)C)cc1)c1ccccc1 [Tamoxifen citrate],0.973
12,CCc1oc2ccccc2c1C(=O)c1cc(Br)c(O)c(Br)c1 [Benzbromarone],1.31
13,NCc1ccc(S(N)(=O)=O)cc1 [Mafenide hydrochloride],0.945
14,CN[C@@H]1[C@H](O[C@H]2[C@H](O[C@H]3[C@H](O)[C@@H](O)[C@H](NC(=N)N)[C@@H](O)[C@@H]3NC(=N)N)O[C@@H](C)[C@]2(O)CO)O[C@@H](CO)[C@H](O)[C@H]1O [Dihydrostreptomycin sulfate],0.832
15,CC[N+](CC)(CC)CCOc1cccc(OCC[N+](CC)(CC)CC)c1OCC[N+](CC)(CC)CC [Gallamine triethiodide],1.19
16,CCOC(=O)[N-]c1c[n+](N2CCOCC2)no1 [Molsidomine],1.78
17,CC(C)(C)NCC(O)c1cc(O)cc(O)c1 (stereo not given) [Terbutaline hemisulfate],1.28
18,NS(=O)(=O)c1cc2c(cc1Cl)NC(CC1CCCC1)NS2(=O)=O (stereo not given) [Cyclopenthiazide],0.665
19,C#C[C@]1(O)CC[C@H]2[C@@H]3CCC4=C(CCC(=O)C4)[C@H]3CC[C@@]21C [Norethynodrel],0.646
20,CC(C(=O)O)c1ccc(C(=O)c2cccs2)cc1 (stereo not given) [Suprofen],0.908
21,CN1CCC[C@@H]1CCO[C@](C)(c1ccccc1)c1ccc(Cl)cc1 [Clemastine fumarate],0.925
22,CCOc1ccc(NC(C)=O)cc1 [Phenacetin],0.611
23,CCCCC[C@H](O)/C=C/[C@H]1[C@H](O)CC(=O)[C@@H]1CCCCCCC(=O)O [Alprostadil],0.859

row,SMILES,% Pdx1+ Ins1-low
1,CC(C)(C)NC[C@H](O)COc1ccccc1C1CCCC1 [Penbutolol sulfate],0.548
2,COc1ccc(C(=O)c2ccccc2O)c(O)c1 [Dioxybenzone],1.05
3,O=c1c(O)c(-c2ccc(O)c(O)c2)oc2cc(O)cc(O)c12 [Quercetine dihydrate],0.91
4,Nc1ccc(S(=O)(=O)Nc2ccccn2)cc1 [Sulfapyridine],1.26
5,CO[C@H]1C[C@H](O[C@H]2[C@H](C)[C@@H](O[C@@H]3O[C@H](C)C[C@H](N(C)C)[C@H]3O)[C@@H](C)C[C@@]3(CO3)C(=O)[C@H](C)[C@@H](O)[C@@H](C)[C@@H](C)OC(=O)[C@@H]2C)O[C@@H](C)[C@@H]1O [Oleandomycin phosphate],1.35
6,CN(C)CCCN1c2ccccc2Sc2ccc(Cl)cc21 [Chlorpromazine hydrochloride],0.737
7,"Cc1n[nH]c(=O)[nH]c1=O [Azathymine, 6]",0.613
8,CC(=O)[C@H]1CC[C@H]2[C@@H]3CC=C4C[C@@H](O)CC[C@]4(C)[C@H]3CC[C@]12C [Pregnenolone],0.628
9,COc1ccc(CC2c3cc(OC)c(OC)cc3CC[N+]2(C)CCC(=O)OCCCCCOC(=O)CC[N+]2(C)CCc3cc(OC)c(OC)cc3C2Cc2ccc(OC)c(OC)c2)cc1OC (stereo not given) [Atracurium besylate],1.2
10,CC(COc1ccccc1)NC(C)C(O)c1ccc(O)cc1 (stereo not given) [Isoxsuprine hydrochloride],0.685
11,CC(C)(C)c1ccc(C(O)CCCN2CCC(C(O)(c3ccccc3)c3ccccc3)CC2)cc1 (stereo not given) [Terfenadine],1.3
12,CC[C@@H](C(=O)[C@@H](C)[C@@H](O)[C@H](C)CCc1ccc(C)c(O)c1C(=O)O)[C@H]1O[C@](CC)([C@H]2CC[C@](O)(CC)[C@H](C)O2)C[C@@H]1C [Lasalocid sodium salt],0.591
13,CCOC(=O)NNc1nncc2ccccc12 [Todralazine hydrochloride],0.942
14,CCCCN1CCCCC1C(=O)Nc1c(C)cccc1C (stereo not given) [Bupivacaine hydrochloride],0.723
15,COc1cc(-c2ccc(=O)[nH]n2)ccc1OC(F)F [Zardaverine],0.561
16,O=c1cc(-c2ccc(O)cc2)oc2c([C@@H]3O[C@H](CO)[C@@H](O)[C@H](O)[C@H]3O)c(O)cc(O)c12 [Vitexin],1.48
17,CCCCNc1c(C(=O)OCC)c(C)nc2c1cnn2CC [Tracazolate hydrochloride],0.738
18,COc1cc(NC(C)CCCN)c2ncccc2c1 (stereo not given) [Primaquine diphosphate],0.724
19,CCCCC1(COC(=O)CCC(=O)O)C(=O)N(c2ccccc2)N(c2ccccc2)C1=O [Suxibuzone],1.07
20,CN(C)[C@@H]1C(O)=C(C(N)=O)C(=O)[C@@]2(O)C(O)=C3C(=O)c4c(O)cccc4[C@@](C)(O)[C@H]3[C@H](O)[C@@H]12 [Oxytetracycline dihydrate],1.12
21,NC(N)=Nc1nc(CSCC/C(N)=N/S(N)(=O)=O)cs1 [Famotidine],0.767
22,Cc1cc(-c2ccccc2)nnc1NCCN1CCOCC1 [Minaprine dihydrochloride],0.672

# A draw from above in order of heavy-atom count, falling:
row,SMILES,% Pdx1+ Ins1-low
19,CCCCC1(COC(=O)CCC(=O)O)C(=O)N(c2ccccc2)N(c2ccccc2)C1=O [Suxibuzone],1.07
1,CC(C)(C)NC[C@H](O)COc1ccccc1C1CCCC1 [Penbutolol sulfate],0.548
7,"Cc1n[nH]c(=O)[nH]c1=O [Azathymine, 6]",0.613
